{"sequences": {"note": "Chains of the proteins cited; added tags and fusions are not shown. Lines headed by an entry give the natural chain unless they say otherwise; changes in a name come on top.", "UniProt Q80U70": "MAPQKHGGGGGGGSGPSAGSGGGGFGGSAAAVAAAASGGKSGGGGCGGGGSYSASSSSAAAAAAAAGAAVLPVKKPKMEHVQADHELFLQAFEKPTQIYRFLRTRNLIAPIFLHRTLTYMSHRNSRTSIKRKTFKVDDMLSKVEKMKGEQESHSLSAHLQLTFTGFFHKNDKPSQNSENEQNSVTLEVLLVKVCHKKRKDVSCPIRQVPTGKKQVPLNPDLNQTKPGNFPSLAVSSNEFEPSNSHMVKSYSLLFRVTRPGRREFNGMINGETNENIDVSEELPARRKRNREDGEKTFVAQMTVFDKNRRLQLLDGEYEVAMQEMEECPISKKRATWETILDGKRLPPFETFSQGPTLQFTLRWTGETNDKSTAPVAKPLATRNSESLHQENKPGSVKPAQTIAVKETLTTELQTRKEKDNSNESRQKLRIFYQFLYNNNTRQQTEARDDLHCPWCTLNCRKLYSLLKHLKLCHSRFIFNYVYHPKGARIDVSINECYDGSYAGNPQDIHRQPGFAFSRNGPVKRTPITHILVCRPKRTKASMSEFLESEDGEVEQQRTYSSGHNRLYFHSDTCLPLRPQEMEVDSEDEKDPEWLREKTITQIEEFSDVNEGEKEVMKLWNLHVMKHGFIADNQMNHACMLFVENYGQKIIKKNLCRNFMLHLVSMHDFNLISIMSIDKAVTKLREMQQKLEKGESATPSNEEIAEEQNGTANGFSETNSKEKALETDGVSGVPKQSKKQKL", "UniProt P17918": "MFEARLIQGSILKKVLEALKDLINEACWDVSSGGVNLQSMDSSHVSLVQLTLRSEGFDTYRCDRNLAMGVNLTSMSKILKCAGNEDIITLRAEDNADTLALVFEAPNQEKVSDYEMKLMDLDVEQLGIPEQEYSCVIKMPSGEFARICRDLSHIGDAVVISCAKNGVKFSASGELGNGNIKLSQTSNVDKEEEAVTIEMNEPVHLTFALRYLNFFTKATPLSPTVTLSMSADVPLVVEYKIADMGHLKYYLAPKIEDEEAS", "UniProt Q3TKT4": "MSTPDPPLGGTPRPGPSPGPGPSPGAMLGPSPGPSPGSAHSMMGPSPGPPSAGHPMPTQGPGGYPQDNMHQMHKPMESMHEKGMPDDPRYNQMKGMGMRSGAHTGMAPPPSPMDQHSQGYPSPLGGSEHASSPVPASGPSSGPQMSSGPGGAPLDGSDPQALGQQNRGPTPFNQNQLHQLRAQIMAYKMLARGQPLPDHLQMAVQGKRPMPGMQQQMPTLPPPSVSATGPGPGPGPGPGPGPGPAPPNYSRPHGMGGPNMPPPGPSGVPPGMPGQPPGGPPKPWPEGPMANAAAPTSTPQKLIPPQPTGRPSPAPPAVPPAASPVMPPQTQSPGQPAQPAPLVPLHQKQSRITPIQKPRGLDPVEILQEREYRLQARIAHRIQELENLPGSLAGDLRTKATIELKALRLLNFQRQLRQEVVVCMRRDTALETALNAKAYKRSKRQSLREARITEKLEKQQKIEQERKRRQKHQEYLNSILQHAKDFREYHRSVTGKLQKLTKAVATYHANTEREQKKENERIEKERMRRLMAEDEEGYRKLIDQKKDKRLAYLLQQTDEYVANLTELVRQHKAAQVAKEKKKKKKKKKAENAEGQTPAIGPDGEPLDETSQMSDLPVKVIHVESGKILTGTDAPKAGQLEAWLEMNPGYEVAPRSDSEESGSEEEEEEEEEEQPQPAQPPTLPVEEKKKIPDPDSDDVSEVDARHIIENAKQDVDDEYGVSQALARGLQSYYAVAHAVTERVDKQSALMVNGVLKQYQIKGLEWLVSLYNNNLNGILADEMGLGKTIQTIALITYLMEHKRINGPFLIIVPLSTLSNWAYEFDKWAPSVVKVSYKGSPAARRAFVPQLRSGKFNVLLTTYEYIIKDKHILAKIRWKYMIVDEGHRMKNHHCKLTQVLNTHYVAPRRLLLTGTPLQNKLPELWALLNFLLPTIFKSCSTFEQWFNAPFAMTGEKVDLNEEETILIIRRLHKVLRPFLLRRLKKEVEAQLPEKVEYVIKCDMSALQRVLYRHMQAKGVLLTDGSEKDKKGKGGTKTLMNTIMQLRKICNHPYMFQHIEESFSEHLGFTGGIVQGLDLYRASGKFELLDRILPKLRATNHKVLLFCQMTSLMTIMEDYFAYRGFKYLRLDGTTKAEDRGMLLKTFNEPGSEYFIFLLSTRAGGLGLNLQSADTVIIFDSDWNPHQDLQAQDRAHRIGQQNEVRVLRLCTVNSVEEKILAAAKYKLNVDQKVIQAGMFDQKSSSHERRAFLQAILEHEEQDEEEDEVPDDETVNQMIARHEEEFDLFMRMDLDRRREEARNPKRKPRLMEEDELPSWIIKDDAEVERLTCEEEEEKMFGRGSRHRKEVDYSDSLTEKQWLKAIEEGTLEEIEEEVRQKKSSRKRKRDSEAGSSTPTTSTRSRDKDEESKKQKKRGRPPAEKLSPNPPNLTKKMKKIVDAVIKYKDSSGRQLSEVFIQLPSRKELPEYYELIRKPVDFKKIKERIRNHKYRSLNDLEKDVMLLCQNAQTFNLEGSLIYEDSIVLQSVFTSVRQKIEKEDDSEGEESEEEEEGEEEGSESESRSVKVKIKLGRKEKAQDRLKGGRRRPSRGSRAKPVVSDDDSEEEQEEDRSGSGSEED", "UniProt P97310": "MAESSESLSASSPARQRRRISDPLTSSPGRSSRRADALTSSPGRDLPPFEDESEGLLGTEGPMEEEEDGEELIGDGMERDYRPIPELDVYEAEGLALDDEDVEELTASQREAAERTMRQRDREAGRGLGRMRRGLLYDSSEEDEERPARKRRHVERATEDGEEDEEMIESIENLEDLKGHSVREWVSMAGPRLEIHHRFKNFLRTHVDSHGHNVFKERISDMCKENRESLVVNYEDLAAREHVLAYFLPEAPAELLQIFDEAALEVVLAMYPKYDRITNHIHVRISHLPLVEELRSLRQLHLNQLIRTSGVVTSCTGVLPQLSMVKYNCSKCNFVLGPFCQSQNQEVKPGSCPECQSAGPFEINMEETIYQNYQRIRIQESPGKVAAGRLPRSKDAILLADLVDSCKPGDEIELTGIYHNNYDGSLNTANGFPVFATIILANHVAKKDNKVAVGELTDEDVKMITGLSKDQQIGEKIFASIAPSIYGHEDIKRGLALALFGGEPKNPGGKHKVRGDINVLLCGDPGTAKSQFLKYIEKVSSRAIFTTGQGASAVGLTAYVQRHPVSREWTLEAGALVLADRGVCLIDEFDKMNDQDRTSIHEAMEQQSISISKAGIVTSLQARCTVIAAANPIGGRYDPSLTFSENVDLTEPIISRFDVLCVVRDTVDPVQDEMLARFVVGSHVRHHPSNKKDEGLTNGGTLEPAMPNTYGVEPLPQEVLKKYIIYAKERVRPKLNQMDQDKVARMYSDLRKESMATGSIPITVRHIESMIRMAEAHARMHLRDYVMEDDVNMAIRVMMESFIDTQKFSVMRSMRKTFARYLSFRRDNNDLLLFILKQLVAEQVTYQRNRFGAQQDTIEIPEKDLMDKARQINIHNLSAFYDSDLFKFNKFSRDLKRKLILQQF", "UniProt P97822": "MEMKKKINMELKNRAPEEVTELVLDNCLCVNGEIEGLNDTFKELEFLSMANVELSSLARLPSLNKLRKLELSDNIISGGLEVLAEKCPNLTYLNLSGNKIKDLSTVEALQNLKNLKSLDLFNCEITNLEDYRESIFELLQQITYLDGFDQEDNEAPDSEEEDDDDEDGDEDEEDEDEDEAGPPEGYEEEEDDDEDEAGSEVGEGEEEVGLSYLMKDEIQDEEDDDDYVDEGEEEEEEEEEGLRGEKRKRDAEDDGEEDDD", "UniProt Q9WTM5": "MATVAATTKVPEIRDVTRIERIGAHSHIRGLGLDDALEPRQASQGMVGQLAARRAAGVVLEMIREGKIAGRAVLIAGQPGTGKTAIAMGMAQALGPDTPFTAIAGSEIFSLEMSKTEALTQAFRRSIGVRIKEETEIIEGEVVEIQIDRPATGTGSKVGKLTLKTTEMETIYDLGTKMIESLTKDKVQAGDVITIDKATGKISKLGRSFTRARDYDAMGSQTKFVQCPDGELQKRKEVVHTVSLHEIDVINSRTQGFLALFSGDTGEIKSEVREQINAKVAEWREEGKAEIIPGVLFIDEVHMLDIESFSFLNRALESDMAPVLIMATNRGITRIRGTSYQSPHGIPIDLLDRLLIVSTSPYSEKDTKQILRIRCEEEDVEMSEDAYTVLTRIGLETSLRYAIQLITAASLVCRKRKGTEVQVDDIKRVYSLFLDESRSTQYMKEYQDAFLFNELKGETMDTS"}, "source": "paper PMC9705430", "key": {"[1]": {"molecular_target": "T1, PCGF1 (of the immunoprecipitation with or without benzonase) (UniProt Q8R023)", "T1 sequence": "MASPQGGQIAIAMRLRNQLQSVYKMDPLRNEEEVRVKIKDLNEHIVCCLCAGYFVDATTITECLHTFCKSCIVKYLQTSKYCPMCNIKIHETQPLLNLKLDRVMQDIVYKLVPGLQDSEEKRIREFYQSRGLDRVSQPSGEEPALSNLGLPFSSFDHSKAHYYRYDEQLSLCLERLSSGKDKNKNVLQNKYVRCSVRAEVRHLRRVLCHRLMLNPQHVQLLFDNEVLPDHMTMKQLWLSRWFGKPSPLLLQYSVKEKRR", "test": "co-IP; IP of PCGF1 and immunoblot, with or without 250 Units Benzonase per mg protein (MgCl2 up to 1.5 mM); 0.1% NP-40 lysis buffer (250 mM NaCl), washes with 350 mM NaCl"}, "[2]": {"molecular_target": "T2, endogenous TY1-tagged PCGF1 (mouse) (UniProt Q8R023)", "T2 sequence": "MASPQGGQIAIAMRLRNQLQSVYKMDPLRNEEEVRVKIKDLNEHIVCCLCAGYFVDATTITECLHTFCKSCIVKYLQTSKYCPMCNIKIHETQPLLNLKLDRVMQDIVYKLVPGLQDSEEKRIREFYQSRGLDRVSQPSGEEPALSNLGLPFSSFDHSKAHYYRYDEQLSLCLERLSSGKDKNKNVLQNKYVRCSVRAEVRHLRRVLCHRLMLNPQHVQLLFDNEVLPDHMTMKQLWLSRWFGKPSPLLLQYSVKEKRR", "test": "co-IP; pull-down experiments with endogenous TY1-tagged PCGF1 in IdHPCs; read-out not given"}, "[3]": {"molecular_target": "SUZ12 (mouse (endogenous in IdHPCs)) (UniProt Q80U70)", "test": "co-IP; IP of SUZ12 and immunoblot for AEBP2, JARID2 or PALI1, control and Pcgf1-KO IdHPCs; 0.1% NP-40 lysis buffer (250 mM NaCl), washes with 350 mM NaCl"}}, "note": "Results are given in words; binding and its absence hold for the method and conditions named. Binding seen in cells or lysates may run through a third protein. Some results given as binding are weak or reduced against the parent protein; the word gives no strength. For some of these results: Where a sequence is shown, tags or fusion partners need not be part of it."}
{"molecule": "PCNA (from UniProt P17918 1-261)", "values": [{"measurement": "binding", "setting": "[1]", "value": "binds"}]}
{"molecule": "BRG1 (encoded by Smarca4) (from UniProt Q3TKT4 1-1613)", "values": [{"measurement": "binding", "setting": "[1]", "value": "binds"}]}
{"molecule": "DNA helicase complexes (MCM2-7) (from UniProt P97310 1-904; P25206 1-812; P49717 1-862; P49718 1-734; P97311 1-821; Q61881 1-719)", "values": [{"measurement": "binding", "setting": "[2]", "value": "binds"}]}
{"molecule": "ANP32E (from UniProt P97822 1-260)", "values": [{"measurement": "binding", "setting": "[2]", "value": "binds"}]}
{"molecule": "RUVBL2 (from UniProt Q9WTM5 1-463)", "values": [{"measurement": "binding", "setting": "[2]", "value": "binds"}]}
{"molecule": "AEBP2 (protein, UniProt Q9Z248 1-504) MAAALADMADLEELSRLSPLSPGSPGPAARGRAEPPEEEEEEDDEEAEAEAVAALLLNGGAGGGAGGGEAETMSEPSPESASQAGGDEDEDEEDDEDEGSSSGGAEEESSAESLVGSSSGGCSGDETRSLSPGAASSSSGDGDGKEGLEEPKGPRGGPGGPGSSGGGSSSSSVVSSGGDEGYGTGGGGSSATSGGRRGSLEMSSDGEPLSRMDSEDSISSTLMDIDSTISSGRSTPAMMNGQGSTTASSKHIAYNCCWDQCQACFNSSPDLADHIRSIHVDGQRGGVFVCLWKGCKVYNTPSTSQSWLQRHMLTHSGDKPFKCVVGGCNASFASQGGLARHVPTHFSQQNSSKVSSQPKAKEESPSKAGMNKRRKLKNKRRRSLPRPHDFFDAQTLDAIRHRAICFNLSAHIESLGKGHSVVFHSTVIAKRKEESGKIKLLLHWMPEDILPDVWVNESERHQLKTKVVHLSKLPKDTALLLDPNIYRTMPQKRLKRFDILNFPR", "values": [{"measurement": "binding", "setting": "[3]", "value": "binds"}]}
{"molecule": "JARID2 (protein, UniProt Q62315 1-1234) MSKERPKRNIIQKKYDDSDGIPWSEERVVRKVLYLSLKEFKNAQKRQHGEGLAGSLKAVNGLLGNAQAKALGPASEQSENEKDDASQVSSTSNDVSSSDFEEGPSRKRPRLQAQRKFAQSQPNSPSTTPVKIVEPLLPPPATQISDLSKRKPKTEDFLTFLCLRGSPALPNSMVYFGSSQDEEDVEEEDDETEDVKATTNNASSSCQSTPRKGKTHKHVHNGHVFNGSSRSAREKEPAHKHRSKEATPGKEKHSEPRADSRREQASGAQPTAASAAASSAKGLAANHQPPPSHRSAQDLRKQVSKVNGVTRMSSLGAGTNSAKKIREVRPSPSKTVKYTATVTKGTVTYTKAKRELVKETKPNHHKPSSAVNHTISGKTESSNAKTRKQVLSLGGASKSTGPAASGLKASSRLNPKSCTKEVGGRQLREGLRNSKRRLEEAQQVDKPQSPPKKMKGVAGNAEAPGKKASAASGEKSLLNGHVKKEVPERSLERNRPKRAAAGKNMLGKQAHGKTEGTPCENRSTSQPESSHKPHDPQGKPEKGSGKSGWAAMDEIPVLRPSAKEFHDPLIYIESVRAQVEKYGMCRVIPPPDWRPECKLNDEMRFVTQIQHIHKLGRRWGPNVQRLACIKKHLRSQGITMDELPLIGGCELDLACFFRLINEMGGMQQVTDLKKWNKLADMLRIPKTAQDRLAKLQEAYCQYLLSYDSLSPEEHRRLEKEVLMEKEILEKRKGPLEGHTESDHHKFHSLPRFEPKNGLVHGVTPRNGFRSKLKEVGRAPLKTGRRRLFAQEKEVVKEEEEDKGVLNDFHKCIYKGRSVSLTTFYRTARNIMNMCFSKEPAPAEIEQEYWRLVEEKDCHVAVHCGKVDTNTHGSGFPVGKSEPFSRHGWNLTVLPNNTGSILRHLGAVPGVTIPWLNIGMVFSTSCWSRDQNHLPYIDYLHTGADCIWYCIPAEEENKLEDVVHTLLQGNGTPGLQMLESNVMISPEVLCKKGIKVHRTVQQSGQFVVCFPGSFVSKVCCGYNVSETVHFATTQWTSMGFETAKEMKRRHIAKPFSMEKLLYQIAQAEAKKENGPTLSTISALLDELRDTELRQRRLLFEAGLHSSARYGSHDGNSTVADGKKKPRKWLQLETSERRCQICQHLCYLSMVVQENENVVFCLECALRHVEKQKSCRGLKLMYRYDEEQIISLVNQICGKVSGKHGGIENCLNKPTPKRGPRKRATVDVPPSRLPSS", "values": [{"measurement": "binding", "setting": "[3]", "value": "binds"}]}
